Experimental data taken from article PMC4832068.
These are yes or no findings as the source states them, for the method shown. Some entries that bind do so weakly or less than the wild type. Tags and fused reporters may be left off the sequences shown.

Substrate: T1, C terminus FLAG-tagged Clec4A4 on DC2.4 cells (DC2.4-expressing Clec4A4-GFP) (mouse) (UniProt Q5YIR8)
T1 sequence: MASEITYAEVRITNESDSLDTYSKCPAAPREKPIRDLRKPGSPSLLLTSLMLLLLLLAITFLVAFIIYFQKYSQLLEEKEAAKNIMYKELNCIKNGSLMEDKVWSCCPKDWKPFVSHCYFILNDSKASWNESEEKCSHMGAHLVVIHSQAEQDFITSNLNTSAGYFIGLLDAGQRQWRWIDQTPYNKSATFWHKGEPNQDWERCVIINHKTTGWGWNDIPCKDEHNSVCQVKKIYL
Experiment: flow cytometry on cells; DC2.4, DC2.4-expressing mock-GFP or DC2.4-expressing Clec4A4-GFP stained with 1 ug of Fc fusion protein followed by anti-human IgG-PE; only the binder purified

| binding | Binder |
| --- | --- |
| binds | Clec4A4-huIgFc (extracellular domain of Clec4A4 fused to the Fc fragment of human IgG) (Fc fusion, UniProt Q5YIR8 68-236) YFQKYSQLLEEKEAAKNIMYKELNCIKNGSLMEDKVWSCCPKDWKPFVSHCYFILNDSKASWNESEEKCSHMGAHLVVIHSQAEQDFITSNLNTSAGYFIGLLDAGQRQWRWIDQTPYNKSATFWHKGEPNQDWERCVIINHKTTGWGWNDIPCKDEHNSVCQVKKIYL |
| binds | SIGNR1-huIgFc (Fc fusion, UniProt Q8CJ91 74-325) QVSKTPNTERQKEQEKILQELTQLTDELTSRIPISQGKNESMQAKITEQLMQLKTELLSRIPIFQGQNESIQEKISEQLMQLKAELLSKISSFPVKDDSKQEKIYQQLVQMKTELFRLCRLCPWDWTFLLGNCYFFSKSQRNWNDAVTACKEVKAQLVIINSDEEQTFLQQTSKAKGPTWMGLSDLKKEATWLWVDGSTLSSRFQKYWNRGEPNNIGEEDCVEFAGDGWNDSKCELKKFWICKKSATPCTEG |
